PubChem BioAssay AID1508588 – Peter MacCallum Cancer Centre, 2020
The whole screen tested about 18,000 reagents; below is a part drawn at random. 790 of them (4.4%) were called active. 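Calls rest on a combination of fold-change classes in drug and vehicle arms, not all shown here.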 Unmarked entries are inactive.

Test: 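Genome-wide search for knock-downs that heighten vemurafenib action in melanoma cells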 (primary screen)
Cell system: human WM266.4 melanoma cells (BRAF V600 mutant)
Knock-down reagent: siRNA pool against human genes, 40 nM
Time to read-out: 96 h from transfection to read-out
Treatment: vemurafenib 300 nM (about IC25), added 48 h after transfection, for 48 h; comparison arm got DMSO vehicle only
Read-out: 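Ratios to non-targeting siRNA for cell gain, counted as DAPI nuclei after minus before drug and averaged over two replicates, and for absorbance-read medium lactate per cell; both binned into fold-change classes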
Scale: cell gain with vemurafenib: higher = more cell gain than with non-targeting siRNA; lactate per cell with vemurafenib: higher = more lactate made per cell
Active means: 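Enhancement is called by pairing each knock-down's vehicle-arm and drug-arm fold-change classes for viability or glycolysis; which class combinations qualify is not given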
Meaning of the calls: active = enhances vemurafenib effect; inactive = no enhancement seen

| gene | cell gain with vemurafenib | lactate per cell with vemurafenib |
| --- | --- | --- |
| DCUN1D3 | 0.24 | 1.54 |
| DEK | 0.09 | 1.1 |
| CA4 | 0.47 | 1.23 |
| TUT4 | 0.56 | 1.46 |
| ACSM1 | 0.38 | 1.15 |
| MACROD1 | 0.74 | 1.56 |
| FAM43B | 0.61 | 1.04 |
| FBXO4 | 0.63 | 0.66 |
| MAP3K7CL | 0.5 | 2.27 |
| PHKA2 | 0.69 | 0.94 |
| ALDH1A1 | 0.91 | 0.48 |
| FBXO16 | 0.6 | 0.73 |
| VMP1 | 0.84 (active) | 0.48 |
| SPATA2 | 0.65 | 0.85 |
| PHKB | 0.52 | 1.18 |
| HNF1B | 1.1 | 0.94 |

Ordered by “lactate per cell with vemurafenib” (descending): 2 of the entries above.
| gene | cell gain with vemurafenib | lactate per cell with vemurafenib |
| --- | --- | --- |
| FBXO16 | 0.6 | 0.73 |
| VMP1 | 0.84 (active) | 0.48 |

The listing continues:
| gene | cell gain with vemurafenib | lactate per cell with vemurafenib |
| --- | --- | --- |
| RIOK1 | 0.39 | 0.57 |
| SDSL | 0.77 | 1.42 |
| NEUROD2 | 0.58 (active) | 0.34 |
| CPNE7 | 0.69 | 1.33 |
| C4BPB | 0.37 | 0.9 |
| AASS | 0.87 | 0.2 |
| TARBP1 | 1.07 | 0.7 |
| PLAG1 | 0.59 | 1.12 |
| SLC35B4 | 0.64 | 1.18 |
| GDAP1 | 0.99 | 0.89 |
| SLC7A5 | 0.63 | 0.94 |
| GAL3ST4 | 0.1 | 1.73 |
| SLC66A3 | 0.04 | 1.21 |
| POLR1D | 0.2 | 0.62 |
| TAS2R7 | 0.58 | 2.27 |
| TMEM257 (retired record) | 0.27 | 2.53 |
| NPBWR2 | 0.23 | 1.12 |
| DAZAP2 | 0.62 | 0.86 |
